These are yes or no findings as the source states them, for the method shown. Binding seen in cells or lysates may run through a third protein. Here binding means that the protein was enriched with, or labelled near, the bait; the list need not be complete. Tags and fused reporters may be left off the sequences shown.
T1: Hsp22-3xFLAG (Drosophila) (UniProt P02515)
T1 sequence: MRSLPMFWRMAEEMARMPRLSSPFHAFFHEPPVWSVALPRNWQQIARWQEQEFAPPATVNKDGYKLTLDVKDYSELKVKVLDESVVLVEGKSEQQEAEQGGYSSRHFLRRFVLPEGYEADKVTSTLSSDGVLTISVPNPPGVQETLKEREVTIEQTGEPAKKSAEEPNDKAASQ

Chains of the proteins cited; added tags and fusions are not shown. Lines headed by an entry give the natural chain unless they say otherwise; changes in a name come on top.
UniProt Q9VIE8: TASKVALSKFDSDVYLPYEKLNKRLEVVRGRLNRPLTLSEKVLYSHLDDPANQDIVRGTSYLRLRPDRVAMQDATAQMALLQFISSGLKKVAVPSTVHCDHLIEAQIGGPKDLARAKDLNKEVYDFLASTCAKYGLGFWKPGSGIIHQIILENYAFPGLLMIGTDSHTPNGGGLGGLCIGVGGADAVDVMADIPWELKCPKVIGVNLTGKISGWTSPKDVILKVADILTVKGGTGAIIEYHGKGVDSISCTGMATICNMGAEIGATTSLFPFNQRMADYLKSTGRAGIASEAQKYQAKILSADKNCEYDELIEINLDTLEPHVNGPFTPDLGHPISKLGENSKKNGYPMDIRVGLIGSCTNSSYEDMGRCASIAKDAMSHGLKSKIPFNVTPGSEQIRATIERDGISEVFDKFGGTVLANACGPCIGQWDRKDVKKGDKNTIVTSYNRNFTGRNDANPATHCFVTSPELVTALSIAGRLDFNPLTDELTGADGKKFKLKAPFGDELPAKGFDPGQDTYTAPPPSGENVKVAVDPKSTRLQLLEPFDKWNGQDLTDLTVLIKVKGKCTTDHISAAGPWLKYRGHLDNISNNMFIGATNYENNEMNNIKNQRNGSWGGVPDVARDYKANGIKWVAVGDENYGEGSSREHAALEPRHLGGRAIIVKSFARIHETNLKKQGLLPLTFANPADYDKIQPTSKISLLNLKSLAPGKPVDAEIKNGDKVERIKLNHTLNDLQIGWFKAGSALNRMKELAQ

B1: RFeSP, a mitochondrial Rieske iron-sulfur protein (protein, UniProt Q9VQ29 36-230)
chain: AHTDLQVPDFSAYRRESVKDSRRRNDTAEERKAFSYLMVGAGAVGGAYAAKGLVNTFIGSMSASAEVLAMAKIEIKLSDIPEGKSVTFKWRGKPLFIRHRTAAEIETERNVPTSTLRDPEADDQRVIKPEWLVVIGVCTHLGCVPIANAGDWGGYYCPCHGSHYDASGRIRKGPAPLNLEVPTHEFPNEGLLVVG
B2: Fer1HCH (protein, UniProt Q7KRU8 20-205)
chain: DFKCSLAVPEITKDWVDMKDACIKGMRNQIQEEINASYQYLAMGAYFSRDTVNRPGFAEHFFKAAKEEREHGSKLVEYLSMRGQLTEGVSDLINVPTVAKQEWTDGAAALSDALDLEIKVTKSIRKLIQTCENKPYNHYHLVDYLTGVYLEEQLHGQRELAGKLTTLKKMMDTNGELGEFLFDKTL

Target: T1, Hsp22-3xFLAG (Drosophila)
Assay: affinity purification with mass spectrometry; 3xFLAG-tagged bait in transfected S2 cells (grown in 1 mM FAC or 120 µM BPS media); lysate (50 mM Tris-HCl pH 7.4, 150 mM NaCl, 1 mM EDTA, 0.1% NP-40) on M2 Flag beads 4 h at 4 °C; SDS gel slices, MALDI-TOF MS

binding, binds:
mitochondrial Aconitase (from UniProt Q9VIE8)
Hsp70 (Drosophila (endogenous in S2 cells))
B1
B2

— PMC12218971
